For one substance, binding results are on record in PMC10729423.

Chains of the proteins cited; added tags and fusions are not shown.
UniProt Q6R327: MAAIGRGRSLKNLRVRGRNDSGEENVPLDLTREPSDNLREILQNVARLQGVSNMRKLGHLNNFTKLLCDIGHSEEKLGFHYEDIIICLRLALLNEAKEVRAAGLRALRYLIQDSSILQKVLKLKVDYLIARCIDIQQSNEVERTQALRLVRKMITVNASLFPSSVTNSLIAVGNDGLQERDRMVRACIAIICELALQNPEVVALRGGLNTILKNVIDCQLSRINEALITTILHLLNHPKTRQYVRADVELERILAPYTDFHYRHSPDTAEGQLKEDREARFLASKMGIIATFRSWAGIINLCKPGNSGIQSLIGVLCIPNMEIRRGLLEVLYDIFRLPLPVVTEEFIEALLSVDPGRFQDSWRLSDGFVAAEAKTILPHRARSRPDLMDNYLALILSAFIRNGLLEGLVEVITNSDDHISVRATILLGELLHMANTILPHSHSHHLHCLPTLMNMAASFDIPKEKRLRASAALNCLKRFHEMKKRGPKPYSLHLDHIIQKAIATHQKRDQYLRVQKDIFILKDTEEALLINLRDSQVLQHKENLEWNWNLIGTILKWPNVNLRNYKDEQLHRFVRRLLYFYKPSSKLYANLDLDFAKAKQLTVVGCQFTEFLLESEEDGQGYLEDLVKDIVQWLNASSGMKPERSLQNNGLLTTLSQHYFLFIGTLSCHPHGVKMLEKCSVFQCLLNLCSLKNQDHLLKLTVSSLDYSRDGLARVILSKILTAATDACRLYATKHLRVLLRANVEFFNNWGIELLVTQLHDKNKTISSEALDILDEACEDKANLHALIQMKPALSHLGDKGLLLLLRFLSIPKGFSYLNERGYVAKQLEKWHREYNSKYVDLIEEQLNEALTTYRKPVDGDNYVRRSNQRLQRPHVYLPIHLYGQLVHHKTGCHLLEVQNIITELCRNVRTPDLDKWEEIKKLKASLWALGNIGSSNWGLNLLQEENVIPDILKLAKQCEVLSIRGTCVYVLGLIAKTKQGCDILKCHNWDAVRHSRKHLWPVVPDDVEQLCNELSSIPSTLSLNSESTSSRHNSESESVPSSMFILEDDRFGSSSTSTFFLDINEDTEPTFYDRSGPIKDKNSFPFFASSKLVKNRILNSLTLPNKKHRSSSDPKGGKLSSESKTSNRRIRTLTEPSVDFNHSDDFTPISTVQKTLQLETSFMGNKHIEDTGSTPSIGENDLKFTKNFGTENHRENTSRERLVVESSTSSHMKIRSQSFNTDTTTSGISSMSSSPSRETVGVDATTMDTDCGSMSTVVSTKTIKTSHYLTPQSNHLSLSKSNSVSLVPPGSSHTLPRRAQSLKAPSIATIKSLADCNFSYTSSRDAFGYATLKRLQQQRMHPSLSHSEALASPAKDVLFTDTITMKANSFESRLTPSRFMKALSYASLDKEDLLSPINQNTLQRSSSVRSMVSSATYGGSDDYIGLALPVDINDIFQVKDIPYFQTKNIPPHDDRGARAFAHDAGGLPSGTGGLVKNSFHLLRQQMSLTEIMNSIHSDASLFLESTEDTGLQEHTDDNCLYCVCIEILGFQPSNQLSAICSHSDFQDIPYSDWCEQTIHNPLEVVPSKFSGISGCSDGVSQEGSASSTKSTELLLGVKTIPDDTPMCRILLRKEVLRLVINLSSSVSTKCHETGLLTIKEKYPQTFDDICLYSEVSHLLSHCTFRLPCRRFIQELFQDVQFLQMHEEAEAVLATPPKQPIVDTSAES

The target in test [1] is Rictor (human (endogenous in Hep3B)) (UniProt Q6R327). The experiment in a line: co-IP; Hep3B cells 48 h after transfection with pCMV-p53wt; precipitation with Rictor and p53 antibodies, immunoblotting. (A western blot detects proteins with antibodies after separation by electrophoresis.)
For test [2] the target is unchanged. The experiment in a line: condition: only cytoplasmic proteins (fractionation); co-IP; Hep3B cells transfected with pCMV-p53wt, fractionated; cytoplasmic proteins only; precipitation with the Rictor antibody.

No constants are given. Whether binding was seen depends on the method and setting. Binding seen in cells or lysates may run through a third protein. Some entries that bind do so weakly or less than the wild type.

With “wild-type p53 (from UniProt P04637 1-393)”, the binding entry in test [1] was “binds”; in test [2], “no binding”.
